Measurements: publication PMC11980547
These are yes or no findings as the source states them, for the method shown. Binding can be weak; no strength is given. Tags and fused reporters may be left off the sequences shown. For some of these results: In cells and extracts the contact can be indirect.

Columns and labels:
[1] = target: T1, EqCmu-His (Erysiphe quercicola); test: pull-down; EqCmu-His (10 µg) held on anti-His beads at 4℃; EqPdt-GST (5 µg) added for 2 hours at 4°C, without or with infected or non-infected H. brasiliensis leaf cytosolic extract (30 µg; the extract enhanced the interaction); blot with anti-His and anti-GST; both purified
T1 sequence: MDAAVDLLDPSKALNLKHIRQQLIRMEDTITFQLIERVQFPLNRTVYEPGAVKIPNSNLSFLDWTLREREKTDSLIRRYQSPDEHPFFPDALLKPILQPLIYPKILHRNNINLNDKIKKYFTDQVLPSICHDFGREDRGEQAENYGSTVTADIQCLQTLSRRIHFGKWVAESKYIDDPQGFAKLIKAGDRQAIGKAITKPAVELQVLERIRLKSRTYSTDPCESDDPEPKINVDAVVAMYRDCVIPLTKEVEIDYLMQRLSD

[2] = target: T2, EqCmu-C’YFP (Erysiphe quercicola); test: split reporter; BiFC: EqCmu-C’YFP and EqPdt-N’YFP co-expressed in N. benthamiana leaves; YFP signals read 48 hours after Agrobacterium infiltration
T2 sequence: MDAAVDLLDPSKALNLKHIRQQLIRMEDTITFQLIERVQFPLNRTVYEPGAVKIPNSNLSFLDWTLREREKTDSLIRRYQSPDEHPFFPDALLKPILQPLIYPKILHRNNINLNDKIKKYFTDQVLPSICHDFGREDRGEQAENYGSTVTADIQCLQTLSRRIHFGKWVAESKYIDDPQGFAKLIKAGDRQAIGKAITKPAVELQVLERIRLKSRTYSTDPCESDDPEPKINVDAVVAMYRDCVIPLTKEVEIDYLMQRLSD

[3] = target: T3, EqCmu-GFP (Erysiphe quercicola); test: co-IP; EqCmu-GFP and EqPdt-Flag co-expressed in N. benthamiana leaves; total leaf proteins incubated with GFP beads (Chromotek) at 4°C for 4 hours; blot with anti-GFP and anti-Flag (anti-DDDK)
T3 sequence: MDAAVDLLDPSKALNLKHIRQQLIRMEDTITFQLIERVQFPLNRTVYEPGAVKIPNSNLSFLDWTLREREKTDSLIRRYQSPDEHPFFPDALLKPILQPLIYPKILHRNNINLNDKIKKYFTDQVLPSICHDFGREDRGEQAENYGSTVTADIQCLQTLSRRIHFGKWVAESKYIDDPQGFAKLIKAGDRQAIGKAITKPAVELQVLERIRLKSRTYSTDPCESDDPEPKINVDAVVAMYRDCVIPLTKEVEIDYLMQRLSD

[4] = target: EqPdt-BD (Erysiphe quercicola); test: two-hybrid; pGADT7 and pGBKT7 fusions in yeast Y2HGold; growth on SD-LWHA with X-α-gal, 30℃

In the case of EqPdt-GST (Erysiphe quercicola), the binding [1] is reported as “binds”.

In the case of EqPdt-N’YFP (Erysiphe quercicola), the binding [2] is reported as “binds”.

For EqPdt-Flag (Erysiphe quercicola), the binding [3] was “binds”.

B1: EqCmu-AD (protein, UniProt A0A5B8NIM2 1-262)
chain: MDAAVDLLDPSKALNLKHIRQQLIRMEDTITFQLIERVQFPLNRTVYEPGAVKIPNSNLSFLDWTLREREKTDSLIRRYQSPDEHPFFPDALLKPILQPLIYPKILHRNNINLNDKIKKYFTDQVLPSICHDFGREDRGEQAENYGSTVTADIQCLQTLSRRIHFGKWVAESKYIDDPQGFAKLIKAGDRQAIGKAITKPAVELQVLERIRLKSRTYSTDPCESDDPEPKINVDAVVAMYRDCVIPLTKEVEIDYLMQRLSD
For B1, the binding [4] was “binds”.
